These results are taken from publication PMC4737751.

Sequences of proteins named here, by UniProt entry; tags and fusion partners are left off.
UniProt P87112: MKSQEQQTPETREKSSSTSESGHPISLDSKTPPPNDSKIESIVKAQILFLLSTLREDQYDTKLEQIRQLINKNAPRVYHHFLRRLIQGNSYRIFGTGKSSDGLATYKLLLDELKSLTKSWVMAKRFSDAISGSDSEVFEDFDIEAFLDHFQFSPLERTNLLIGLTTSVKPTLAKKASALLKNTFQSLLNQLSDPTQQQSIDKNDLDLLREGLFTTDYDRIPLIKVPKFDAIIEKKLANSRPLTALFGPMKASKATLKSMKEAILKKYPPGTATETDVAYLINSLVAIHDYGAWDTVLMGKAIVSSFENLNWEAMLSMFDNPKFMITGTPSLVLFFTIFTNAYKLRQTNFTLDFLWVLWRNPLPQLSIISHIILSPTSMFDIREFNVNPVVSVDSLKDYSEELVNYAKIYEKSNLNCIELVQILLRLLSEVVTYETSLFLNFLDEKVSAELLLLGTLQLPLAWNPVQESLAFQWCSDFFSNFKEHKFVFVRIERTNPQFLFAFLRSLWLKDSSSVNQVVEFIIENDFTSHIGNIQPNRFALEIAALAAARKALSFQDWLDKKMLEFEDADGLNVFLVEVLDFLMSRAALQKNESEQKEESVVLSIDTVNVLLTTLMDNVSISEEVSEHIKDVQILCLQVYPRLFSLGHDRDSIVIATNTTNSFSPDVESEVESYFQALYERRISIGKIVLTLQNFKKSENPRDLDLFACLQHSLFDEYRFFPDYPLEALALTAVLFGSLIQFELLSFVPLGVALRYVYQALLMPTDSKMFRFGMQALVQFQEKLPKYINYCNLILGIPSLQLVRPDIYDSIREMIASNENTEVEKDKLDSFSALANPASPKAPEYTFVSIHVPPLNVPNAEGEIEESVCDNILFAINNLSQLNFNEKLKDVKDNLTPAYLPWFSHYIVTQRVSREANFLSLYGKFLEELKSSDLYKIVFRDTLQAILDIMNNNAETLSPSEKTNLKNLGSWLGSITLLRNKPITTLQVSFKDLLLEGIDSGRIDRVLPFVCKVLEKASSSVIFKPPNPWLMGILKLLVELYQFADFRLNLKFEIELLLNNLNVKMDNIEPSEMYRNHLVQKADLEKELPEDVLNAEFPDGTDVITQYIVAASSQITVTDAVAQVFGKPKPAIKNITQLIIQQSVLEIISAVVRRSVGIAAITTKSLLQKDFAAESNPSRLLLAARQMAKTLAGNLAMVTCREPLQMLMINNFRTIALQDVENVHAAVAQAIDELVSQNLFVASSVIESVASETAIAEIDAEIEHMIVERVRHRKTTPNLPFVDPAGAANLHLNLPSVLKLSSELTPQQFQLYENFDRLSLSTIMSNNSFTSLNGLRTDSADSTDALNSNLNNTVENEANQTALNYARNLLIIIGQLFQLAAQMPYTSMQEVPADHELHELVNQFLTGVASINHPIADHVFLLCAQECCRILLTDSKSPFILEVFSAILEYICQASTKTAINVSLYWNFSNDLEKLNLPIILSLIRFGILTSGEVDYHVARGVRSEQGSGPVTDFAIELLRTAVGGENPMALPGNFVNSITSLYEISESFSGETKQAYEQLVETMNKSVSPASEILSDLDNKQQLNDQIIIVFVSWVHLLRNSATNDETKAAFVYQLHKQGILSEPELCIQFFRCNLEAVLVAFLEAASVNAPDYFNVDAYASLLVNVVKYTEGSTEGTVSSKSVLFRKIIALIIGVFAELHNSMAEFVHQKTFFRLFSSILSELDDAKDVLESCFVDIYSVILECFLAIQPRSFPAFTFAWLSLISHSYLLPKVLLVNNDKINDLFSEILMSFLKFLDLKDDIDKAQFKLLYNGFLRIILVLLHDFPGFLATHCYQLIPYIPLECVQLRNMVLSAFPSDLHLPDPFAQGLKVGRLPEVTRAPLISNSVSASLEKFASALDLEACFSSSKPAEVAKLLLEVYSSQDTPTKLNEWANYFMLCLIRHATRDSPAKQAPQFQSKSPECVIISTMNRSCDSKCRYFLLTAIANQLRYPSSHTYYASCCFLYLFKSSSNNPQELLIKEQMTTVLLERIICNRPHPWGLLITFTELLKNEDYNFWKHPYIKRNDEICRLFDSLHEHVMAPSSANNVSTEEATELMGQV

In assay [1] the target is T1, Not2 subunit of the S. pombe CCR4-NOT complex, fused to Protein A with a TEV protease cleavage site (S. pombe) (UniProt P87240).
T1 sequence: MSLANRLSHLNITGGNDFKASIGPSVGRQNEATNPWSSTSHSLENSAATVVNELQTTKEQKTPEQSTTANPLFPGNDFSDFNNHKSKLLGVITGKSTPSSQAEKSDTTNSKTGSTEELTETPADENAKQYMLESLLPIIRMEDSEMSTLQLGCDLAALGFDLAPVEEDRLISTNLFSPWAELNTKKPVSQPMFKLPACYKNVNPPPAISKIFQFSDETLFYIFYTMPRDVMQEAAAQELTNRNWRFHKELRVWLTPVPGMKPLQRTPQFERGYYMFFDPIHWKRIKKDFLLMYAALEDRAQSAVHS
As to the kind of experiment: co-sedimentation; complexes from GFP-fusion strains purified on IgG beads through Protein A on Not2, TEV eluate incubated with anti-GFP antibody or Fab (30 min, 4 °C), glycerol gradient, fractions analysed by SDS-PAGE.

Assay [2] deals with T2, S. cerevisiae Not2 (S. cerevisiae) (UniProt P06100).
T2 sequence: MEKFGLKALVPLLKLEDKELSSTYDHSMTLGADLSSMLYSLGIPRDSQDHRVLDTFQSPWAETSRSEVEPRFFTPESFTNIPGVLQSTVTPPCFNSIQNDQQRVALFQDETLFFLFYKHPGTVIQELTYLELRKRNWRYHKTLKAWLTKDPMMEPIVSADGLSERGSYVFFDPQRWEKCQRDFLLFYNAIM
As to the kind of experiment: negative staining EM 3D reconstruction; purified S. cerevisiae Not2-Not5 heterodimer, 2% uranyl acetate, 20,055 particles, 16 Å resolution; both purified.

Assay [3] concerns the target T2, S. cerevisiae Not2 (S. cerevisiae). As to the kind of experiment: SEC; S. cerevisiae Not2 and Not5 coexpressed in E. coli and co-purified; complex formation confirmed by size-exclusion chromatography; both purified.

These are yes or no findings as the source states them, for the method shown. For some of these results: Binding seen in cells or lysates may run through a third protein. Some binding calls cover weakened binding; strength is not graded here. For some of these results: Sequences can lack the tags named with a protein.

With “Not1 of S. pombe with GFP fused to its C terminus (from UniProt P87112 1-2100)”, in assay [1], the binding result is reported as “binds”.

B1: Caf1 of S. pombe with GFP fused to its C terminus (protein, UniProt O74856 1-335)
chain: MTAMNSNFSYPALGVDGISSQISPIRDVWSTNLQQEMNLIMSLIERYPVVSMDTEFPGVVARPLGVFKSSDDYHYQTLRANVDSLKIIQIGLALSDEEGNAPVEACTWQFNFTFNLQDDMYAPESIELLTKSGIDFKKHQEVGIEPADFAELLIGSGLVLQEEVTWITFHSGYDFAYLLKAMTQIPLPAEYEEFYKILCIYFPKNYDIKYIMKSVLNNSKGLQDIADDLQIHRIGPQHQAGSDALLTARIFFEIRSRYFDGSIDSRMLNQLYGLGSTGSVLWHNNSSTPQIQFRDLPGAHPSPTPSNAGIPTTLTNTSSAPNFANSTFRFPPRVV
With B1, the binding result in assay [1] was “binds”.

B2: Ccr4 of S. pombe with GFP fused to its C terminus (protein, UniProt O74874 1-690)
chain: MFNPRYTQGTIYPGAHPGLLTPDHQHAAILSVQNSPALENSNISEHWKQQIALATQSRSFSSPHQRAHNAAALARSGGPGFSMNYNARTGAFTGGPNAAGLSSLGGKYNTSSTTTTLTTSTTLNTSSGTTLNSTSKTTTSSVAVDDQKSKSDSKKERRDWTCLDLGGIGLRNVSTDLFKFSFLTELYINHNNLTRLPPEIGKLKNLVILDASGNSIKTIPPELGLLTELREVLLFDNMISVIPAELGTLFQLKILGIEGNPLQDVYKNQIMESGTAGLIAALRDGCPVGPPPPERGWEKLVSDDDDDVNDNVSTSVRDLTAADSNKPSTTSKNLKFTIMSYNVLCERYATSTLYGYTPSWALSWSYRKDLIMQELGGYNADIICLQEVDVENYDTFFAPQMSLKGYKGVHFPKSRVRTMNEVERRIVDGCATFFKTSKYVMHEKMVIEYNQAPSLRRQDIKLTSNMYNRVMTKDNISVITLLENKENGSRLIVANCHIHWDPQFRDVKVIQVAMLMDEIAQVATKFRNMPSKIPSDQLKDERPTYPEYLKIPILICGDFNSVQGSGVYDFLSSGSISQNHEDFMNNDYGEYTVNGRSHAFNLKSAYGESEALSFTNYTPGFKGAIDHIWYTGNSLEVTGLLKGVDKDYLSGVVGFPNAHFPSDHICLLAEFKVKQEKTPLPSSKFNNDKK
With B2, the binding result in assay [1] is “binds”.

B3: S. cerevisiae Not5 (protein, UniProt Q12514 1-560)
chain: MSQRKLQQDIDKLLKKVKEGIEDFDDIYEKFQSTDPSNSSHREKLESDLKREIKKLQKHRDQIKTWLSKEDVKDKQSVLMTNRRLIENGMERFKSVEKLMKTKQFSKEALTNPDIIKDPKELKKRDQVLFIHDCLDELQKQLEQYEAQENEEQTERHEFHIANLENILKKLQNNEMDPEPVEEFQDDIKYYVENNDDPDFIEYDTIYEDMGCEIQPSSSNNEAPKEGNNQTSLSSIRSSKKQERSPKKKAPQRDVSISDRATTPIAPGVESASQSISSTPTPVSTDTPLHTVKDDSIKFDNSTLGTPTTHVSMKKKESENDSEQQLNFPPDRTDEIRKTIQHDVETNAAFQNPLFNDELKYWLDSKRYLMQPLQEMSPKMVSQLESSLLNCPDSLDADSPCLYTKPLSLPHPTSIFFPNEPIRFVYPYDVPLNLTNNENDTDNKFGKDSKAKSKKDDDIYSRTSLARIFMKFDLDTLFFIFYHYQGSYEQFLAARELFKNRNWLFNKVDRCWYYKEIEKLPPGMGKSEEESWRYFDYKKSWLARRCGNDFVYNEEDFEKL
On to B3, for which the binding entry in assay [2] and in assay [3] was “binds” throughout.

B4: Not3 of S. pombe with GFP fused to its C terminus (protein, UniProt O13870 1-640)
chain: MSARKLQVEIEKTFKKVTDGIAIFDEVYEKLSASNSVSQKEKLEGDLKTQIKKLQRLRDQIKTWASSNDIKDKKALLENRRLIEAKMEEFKAVEREMKIKAFSKEGLSIASKLDPKEKEKQDTIQWISNAVEELERQAELIEAEAESLKATFKRGKKDLSKLSHLSELESRIERHKWHQDKLELIMRRLENSQISPEAVNDIQEDIMYYVECSQSEDFAEDENLYDELNLDEASASYDAERSGRSSSSSHSPSPSASSSSSSENLLQDKAEAEEKVSADASVQDIAEKESLDADKELATNDQEDDEEENQAETQKDGAISNNENMQSEVQTTNPSASTSAVTNITKPTLIQNPSTPLSVSNSKVASPETPNATHTAPKVEMRYASAAAAAAAALAKESPSHHYIMQQVRPETPNSPRLNSTVIQSKWDSLGHTASPKMQTQPVRSVSQSSATTETNVKPTKEENADVPVSSPDYLKDLVNALNTSKEQHKGAIDKEKLTEALNISCVYVPDATDAAKPQYYIPKDPYPVPHYYPQQPLPLFDSSEMTELVDPDTLFYMFYYRPGTYQQYIAGQELKKQSWRFHKKYTTWFQRHEEPKMITDEFESGSYRYFDFEGDWVQRKKADFRFTYQYLEDDDDWTR
As for B4, in assay [1], the binding result was “binds”.

B5: Caf40 of S. pombe with GFP fused to its C terminus (protein, UniProt Q92368 1-283)
chain: MENLESPNYEPALVYEWIIQLVSGTSREQALVELSRKREQYEDLALILWHSYGVMTALLQEIISVYPLLNPPTLTGPTSNRVCNALALLQCIASHPETRIHFLNAHITLFLYPFLNTLSKSKPFEYLRLTSLGVIGALVKNDSPEVINFLLSTEIIPLCLRIMENGSELSKTVAIFIVQKFLCDDVGLQYICQTYERFYAVASVLNNMVMQLVDSFAFRLLKHVIRCYLRLSDNPRAREALRHCLPEPLRDATFAQVLKDDHNTKKCLAQLLINLSDVAVVNQ
In the case of B5, in assay [1], the binding result is “binds”.
